Reference: PMC12370185
This is one part of the list.

Test system: KLF4 + histone octamer
Assay: EMSA with sequencing
Conditions: 10 mM Tris-Cl pH 7.5, 50 mM NaCl, 1 mM DTT, 0.25 mg/ml BSA, 2 mM MgCl2, 0.025% Nonidet P-40, 5% glycerol; 28 nM nucleosome library; 10 min on ice then 30 min …; high values mean tight binding; double strand, one strand shown

For “GATGGACCCTATACGCGGCGCTGCCACATCCATTCATTTATGTGATCCAAAGAGGTGGAGGCAGAGGCAGTCACAAGCCTGGACTTGAGTCAGGCAGGCCTGGGCTGGAACTTGGATTAGCAGACCACAGCCAAGCACTTCACTCATCTCTAAATCTGGAATTGTAGAAGTCTTTCTCCCATTTTATATGTGCTTGCAGGATTCCTTAAGTGCCAGTCGGATAGTGTTCC”, which binding signal (log2 relative supershift) is on record?
The binding signal (log2 relative supershift) was 1.4.

With “GATGGACCCTATACGCGGCTTAGATAAACAAAATCTGGAGTATCTGAAGGGTGTGTAAGGCAGAAGTCATGTGAGGTCTGCACACAGCACACTGCTACCTACAGTGTTGGGGGAGTGGCATTGAGCACCATTATCATGCAAGGTGGAGGTGGGTGCCAATAATCACCACTATCATGCAAGGCTAGGGTGGGTGAGGGCAGAAGCCACTCTTGCCAGTCGGATAGTGTTCC” as the sequence, how does the binding signal (log2 relative supershift) read?
The binding signal (log2 relative supershift) was 2.62.

For “GATGGACCCTATACGCGGCTAGCCCAACTATTTAACTAAAGGAACTTTGTAATATCTGGACTCAGAAACTGAGATAAATGCCATAACCAATCATCCAACCGGAGACTGAGGTACATGTAATCAGGTTCAAAAGTGACTCTAAAGGTACTTGCCTGGCAGCATGACAAAGTGGCATATTATTACACTCCTTAAACACTTTGTGAGAAGCAGTGCCAGTCGGATAGTGTTCC”, which binding signal (log2 relative supershift) is on record?
The binding signal (log2 relative supershift) was 1.88.

How did the binding signal (log2 relative supershift) turn out when “GATGGACCCTATACGCGGCTACTCACATTTGACTAATTGCCCACCCACTCCAGCATTAGAGATGTTATTAGTATGCAGATTTGTGGTAATCCCTGGATGGGTGAGGCTTCCTAGATCTCCCTTTCTCACAGGCTCCCCCTCCTGCTATCTGCCTACTCTAACAGAAATGTTTTCTATCTTAACTGTGTCAATGTCAGTATCTTGATTGTGTGCCAGTCGGATAGTGTTCC” was run?
The binding signal (log2 relative supershift) was 1.83.

Test system: SOX2 + histone octamer
Assay: EMSA with sequencing
Conditions: 10 mM Tris-Cl pH 7.5, 50 mM NaCl, 1 mM DTT, 0.25 mg/ml BSA, 2 mM MgCl2, 0.025% Nonidet P-40, 5% glycerol; 28 nM nucleosome library; 10 min on ice then 30 min …; high values mean tight binding; double strand, one strand shown

With “GATGGACCCTATACGCGGCGGGAGACCAGGCGTCCTGGTCCCTTCCTTCTGTCTCCGGCTCCCGCCCCCCAAGCAGAAACAGGTCCCTGCACGCCTCCAGCCCAGCCCGCAGCGCGGCGCAGCTCGGCGCAGCTCGGCGCTGGGAGCTCGCTCCGGACTTCTCGGGATTAACCTGCTATTATGTCCCGGAGCCCTTCCCTGCAATGGGCTTGCCAGTCGGATAGTGTTCC” as the sequence, how does the binding signal (log2 relative supershift) read?
The binding signal (log2 relative supershift) was 1.29.

How did the binding signal (log2 relative supershift) turn out when “GATGGACCCTATACGCGGCAAAAAAAAAGCGAAGGTGAGATGAAGCTTCAGAAAATAGAGGGCCGGGGAGGACACAGGCAGACAGAAGGAATGAGCGACTCAGTCTCAGGTTTCTGGGTCAGATCCAGGTCACATGTTTTGTCTCCTATAAAACTTACACCATACTTGTCGTTACTTGTTCAGTGCCTGCCTCTTCAACTAGGCTGTGAATGCCAGTCGGATAGTGTTCC” was run?
The binding signal (log2 relative supershift) was 0.909.

For “GATGGACCCTATACGCGGCAAAATCACAACCTACAAGTACAGAAGAGATTGCTACAGAGAAGGGTGGTGCTCCACACTCAGAGGCATGAATAAAAGGCCTAAGAGAGCACACAAGGCAATGATTAAGATGCAAATACGCCTTTCAGGTTGGCTCCTTCCTATCTTTCCATCTTGTGCTAAGCAGTGAGAAGAAAAATATTTATCCACAGCTGCCAGTCGGATAGTGTTCC”, which binding signal (log2 relative supershift) is on record?
Its binding signal (log2 relative supershift) is 0.0813.

With “GATGGACCCTATACGCGGCAAAATATATATATATATAGTGGGACTGGGGAATCACAGAACCTTGCCTCAGCCCTGCCACCTTGCTGCCCATGAGGCTTTCAGGGAGGCTGTGGGAAGGGAGGGGGACAATGTCAAAGGCACATGGAAGCTCCCCTTTTATTATTAGCTGGGTGTGTGCCCAGCTCCTCCCAAACAGAACAGGGCTGGGACTGCCAGTCGGATAGTGTTCC” as the sequence, how does the binding signal (log2 relative supershift) read?
Its binding signal (log2 relative supershift) is 0.503.

“GATGGACCCTATACGCGGCAGCTGCATTTGGGACCTTATGGGAAAGTCTGTAAAATTTGCTGTCTTTATTTGCCCTTTAGAGAAAACAGTTTGCTGACCCCTGCACTACAGAGGTTAAGGAGTCCTCCCTCCCTCCCAAGGACCTGTATAGGCACGAAGGCCAGAGGAGCTGTTCTTATCTATGAAAGCTTCCTGGAGTGGATTTCGTGGTGCCAGTCGGATAGTGTTCC” was tested. Which binding signal (log2 relative supershift) did it give?
The binding signal (log2 relative supershift) was 0.413.

“GATGGACCCTATACGCGGCGCAGTAAAATCAACAGCTATGGTTGTGATGGAAGAAGAAAGACATAACCATTACCCAGAAGAGGGTGGATAGTAGTGTTTAGTTTTATTATTAGCAGCACTATTTACATAACAGCACATGTGCATGCCTGCCTGTCCATATAGAGCTATGGGCTTGGGGTGGGGCAAGAGAGAGTCATTGCTTGTAGAATTTGCCAGTCGGATAGTGTTCC” was tested. Which binding signal (log2 relative supershift) did it give?
Its binding signal (log2 relative supershift) is 0.088.

With “GATGGACCCTATACGCGGCGTATCCTAGAACTGCACTTTCTATCAACTTATGTTTCCCTGTGAAGAAAACCTTGTCTCAGCGAGGTGTGGCTGTTCTCAGAGTACTGTGTGTATATGCACGTGGGTGGGTGTGGGTGTGCATATATGTGTAATGGGGACGAACGAGTATTCCTGTACCTTCTTGTTGAGTAGAAGAAAAACATCAAGTTCTGCCAGTCGGATAGTGTTCC” as the sequence, how does the binding signal (log2 relative supershift) read?
The binding signal (log2 relative supershift) was 0.153.

“GATGGACCCTATACGCGGCGACATTGAATCCCCTCACTATAATCTGAATGTGATTTATTATCCCCTTAAAGAGGGGCATCCATACAGGCATGGTCTAATCCCTTGCAATTCAAAGTGTAATCCAAAAGCCAGTAGCATTTGCATCACTTGGGAGCCTGTTACAAATGCACAACCTCAGACCCACCCCACACCTACTGAATCAAGATCCACTGCCAGTCGGATAGTGTTCC” was tested. Which binding signal (log2 relative supershift) did it give?
Its binding signal (log2 relative supershift) is 0.551.

With “GATGGACCCTATACGCGGCTTTGCCGAGAGGTTTGTTTCTGTTATAACTTTTCAAGACTGACTCCATTGTTTATTTTTGGAGCCAACTAGTCTTAGACCTCAGACCTCAGCACACTCAACAGGCCTCAACATGTTTTGAGGGCCTGCCGGAGAAGGCCCAGGCCTCACGGGTGCAGGTCCTACAGAAACCCAGTATCTGAGAGCAGCCTCTGCCAGTCGGATAGTGTTCC” as the sequence, how does the binding signal (log2 relative supershift) read?
The binding signal (log2 relative supershift) was 1.59.

For “GATGGACCCTATACGCGGCCTAATGTGCCTTTGTTAGCAATATCACTTATTTTCTTCAACTGATGTTGAACACATTGTGCTCTCCCAAGCAGGTCTTAAGTCATGCCACGTCAGGGCTGGACCGCTCTTCTTATTCTGCACATGGGCCCTCACTTAGGCAGGGGTGCGGTCAACATTGAAAGAGGTTCCATTCTAGGAATGTAGTGGTTATGCCAGTCGGATAGTGTTCC”, which binding signal (log2 relative supershift) is on record?
Its binding signal (log2 relative supershift) is 1.73.

For “GATGGACCCTATACGCGGCTCTATAGAAGGGTGCGCCCTTACAGATGGAACAATGGTGAGCACACACTTGGACAAGGGAGGGGAAGGAGTTCTTATCCCTGATGCACATGGACCCTGCTGCTGTGCCATTCCCCCATTGGCTAGGGTTAGACTGCACAGGCTAAAGTAATTCCAATTGGCTACTTTAAAGAGAATGACAGGGTGAGTGCTTGCCAGTCGGATAGTGTTCC”, which binding signal (log2 relative supershift) is on record?
Its binding signal (log2 relative supershift) is 1.34.

With “GATGGACCCTATACGCGGCCCACAGGACTGGAGCCATCCCCAAGGTGAGTGTCAGGATGTTTTGAAACTGGGACACACTGTACAGGGGTGAACAAAGGAATCTGCTTTTCAATACCACACTGCCTGCTGCAACCAAATGTCACTGCAGGGCTTAACAGTGAGTAAATGCTGTGTGTGTAAATGCTTCTTCTATGTTTAAAAAACAGGAAATGCCAGTCGGATAGTGTTCC” as the sequence, how does the binding signal (log2 relative supershift) read?
Its binding signal (log2 relative supershift) is 0.309.

With “GATGGACCCTATACGCGGCCCTAGTAGCTGGGAGTTCCCTCTCTGGAGGCCTGTTCCCATTTCTCCAGAGACAATGCTGCATCACAATGTTCCAGATCTTTCACAGGTCATTGACAGGCATCCTATAGGACTTCCCCCCAATACCCCCACCCCGAGAACTCTTTCAGTGGGTTCTCCAGTGACTTAGAAACAAATTTTTTCCTTGGTGGGTGCCAGTCGGATAGTGTTCC” as the sequence, how does the binding signal (log2 relative supershift) read?
The binding signal (log2 relative supershift) was 0.411.

“GATGGACCCTATACGCGGCGCCGTTGTCTTCTTATGCAAGAATAAGGTACGTCTTTCCATCCACTCACGTCTATTTAATTTGACTTTGCATTACACAGAAAGCTGGTCTTGGTCTGTCTACCTCGGCATCTAGTTGTCCTCACTGCCCCCTAGCCGACCCCACCCCATCTGACTGACTACCCCATCACAGAGTACTTTTATTTACGTTTTTGCCAGTCGGATAGTGTTCC” was tested. Which binding signal (log2 relative supershift) did it give?
The binding signal (log2 relative supershift) was 0.915.

With “GATGGACCCTATACGCGGCCTCCTAAGAGGCTTCTCATAGCAAACTCCCCCTCCTTCCGCTGAGAGGGTTTGATGGCAGGCAACAGATGACTTAGGACTCCTCTAATGGTCTTTAGGAACAGGAAGGCACCACCACCATTATCATGCAACATTGTTCTGGAAGTGCAAGCCAATGCAATTAGATAAGGAGAAAAATAAGAGGTAAATGTATGCCAGTCGGATAGTGTTCC” as the sequence, how does the binding signal (log2 relative supershift) read?
The binding signal (log2 relative supershift) was 0.371.

Which binding signal (log2 relative supershift) does the source give for “GATGGACCCTATACGCGGCAGAATTTCAGGACAATGACTGCAGAACATTAAACTAAGCATGGGTCCTTCTGAGTACTGGGCCCTGTGTGACTGCAGAGGCCTCACACTCATGAAGCTGGCCCTGCATTCATGTGGAAATGTGTAAAAAATAGATATTGAAGTCGGGAGAGCTGGTGAAAGGTCATTTTTGGAGATGTAGGCTTGGGAATTTGCCAGTCGGATAGTGTTCC” here?
Its binding signal (log2 relative supershift) is 0.691.

“GATGGACCCTATACGCGGCAAGAATAGATGTTCTGGTAAAGGTCCCTGAGAGACACTAAGGTTGAATCTTGCTTGGGAGACATCCTGTGTATGTGCAGCAGATGGCAGTCTGCATTGGAATGGATCACAAGTCCAGTTTGTGCCACTTTTGTTCCGCTGTATGGTATGGTAAATTACAACCAGGGGGGCATAACCAGTTACAGCACTGCCTGCCAGTCGGATAGTGTTCC” was tested. Which binding signal (log2 relative supershift) did it give?
Its binding signal (log2 relative supershift) is 0.701.

With “GATGGACCCTATACGCGGCTCCTACAATCAGTGTGAACATGGGCAACTCAGAAAATTTCTAATTAATTCATCAAATACCTTTTAAGGACCTATTGCGTCTAAGGTTCTGTGCTAGGCTGTAAGGCTCAATGTCTTACATTGTAATGCAGGGACAATACCAACTATGGCAGAGAGTTGTGATGATCAAAGTGGGCAAAGATTACAGATTATTGCCAGTCGGATAGTGTTCC” as the sequence, how does the binding signal (log2 relative supershift) read?
Its binding signal (log2 relative supershift) is 0.214.

For “GATGGACCCTATACGCGGCTTGTTGTTTGTACCTTTAAGTCCTATCCTGTATTTATGGATGAAATGATGTCATGTCTGAGATTTGCTTCACAATAATGCAGTAGTGGGCAAAGAAGGGTGGAAGTGCAGATGACACGCAATAGGCTGTGTGCTGGTTAATTTTGAGGGTGGTTGATAGATATGTGTGGCTTATTGTACAGTTCCCTTTTTTGCCAGTCGGATAGTGTTCC”, which binding signal (log2 relative supershift) is on record?
The binding signal (log2 relative supershift) was 0.848.

With “GATGGACCCTATACGCGGCGATACCACAAAAAGCACAGTTTCATAGGTCAGTTTAATTCTATAGCAGTCTTTTTTGTCAGCATAGCTGGCGATTCCATCTGTTTTAATTTAAGATTCACCCCAGCCATGCCTCTGTAGCAGGTGACACGTGCACACACACACACACCCCCACACCCACACACTGTTTCCTTATGTAACATACATGATGTATGCCAGTCGGATAGTGTTCC” as the sequence, how does the binding signal (log2 relative supershift) read?
Its binding signal (log2 relative supershift) is 1.16.
